PubChem BioAssay AID504791 | Drosophila RNAi Screening Center, 2011

Purpose: 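Genes whose knock-down strengthens or weakens small-RNA reporter silencing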 (primary screen)
System: Drosophila S2-derived reporter cells
Reagents: long dsRNA against Drosophila genes, about 150-250 ng dsRNA per well (siRNA assay); about 80-120 ng (miRNA assay)
Timing: about 5 days (siRNA assay); about 4 days (miRNA assay)
Treatment: copper sulfate induction of reporters: 25 µM (siRNA assay); 200 mM stated (miRNA assay), 1-2 days before reading
Read-out: 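Per-well ratio of Renilla over firefly light, expressed relative to that plate's average ratio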
Units: stable assay Renilla, run 1 in luminescence; stable assay firefly, run 1 in luminescence
Active means: 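First-pass picks had plate-scaled ratios over 1.5 for the siRNA assay, over 1.6 for the miRNA assay, or under 0.6; two distinct dsRNAs had to score alike on retest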
The screen tested about 23,000 reagents; this is an unselected part of those that have a named target and a result. Over the whole deposit, 199 (0.86%) got an active call. 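Plate-scaled ratios behind the calls are not deposited; printed light signals are raw; many rows marked increased or decreased are still called inactive.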 Names joined by + are all predicted targets of the reagent. Reagent sequences are not shown. Not stated in the record: the direction of the score.

Lipt2 (Lipoyl(octanoyl) transferase 2) [DRSC12338] scored stable assay Renilla, run 1 = 3527; stable assay firefly, run 1 = 2.73e5; inactive.
Lipt2 (Lipoyl(octanoyl) transferase 2) [DRSC22610] gave stable assay Renilla, run 1 = 2767; stable assay firefly, run 1 = 3.27e5; inactive.
With knock-down of psq (pipsqueak) [DRSC07668] the results were stable siRNA reporter change reporter ratio raised past the hit cutoff; stable assay Renilla, run 1 = 6858; stable assay firefly, run 1 = 2.19e5; inactive.
psq (pipsqueak) [DRSC23094] gave stable siRNA reporter change reporter ratio lowered past the hit cutoff; stable assay Renilla, run 1 = 2248; stable assay firefly, run 1 = 2.95e5; inactive.
CG34223 [DRSC05268] showed stable assay Renilla, run 1 = 5719; stable assay firefly, run 1 = 4.10e5; inactive.
bcd + CR14578 [DRSC20984] gave stable assay Renilla, run 1 = 5387; stable assay firefly, run 1 = 4.87e5; inactive.
Depletion of CG9953 [DRSC11106] came out at: stable assay Renilla, run 1 = 7763; stable assay firefly, run 1 = 5.07e5; inactive.
Against nesd (nessun dorma) [DRSC02099], the entry reads stable assay Renilla, run 1 = 8454; stable assay firefly, run 1 = 2.37e6; inactive.
Against CG15382 [DRSC00397], the values are stable assay Renilla, run 1 = 8959; stable assay firefly, run 1 = 5.09e5; inactive.

Entries listed so far whose target name begins with C or c:
CG34223 [DRSC05268] → stable assay Renilla, run 1: 5719; stable assay firefly, run 1: 4.10e5; call: inactive
CG9953 [DRSC11106] → stable assay Renilla, run 1: 7763; stable assay firefly, run 1: 5.07e5; call: inactive
CG15382 [DRSC00397] → stable assay Renilla, run 1: 8959; stable assay firefly, run 1: 5.09e5; call: inactive

Further records:
After knock-down of Nil (Nilkantha) [DRSC15953], the screen gave stable assay Renilla, run 1 = 8502; stable assay firefly, run 1 = 3.79e5; inactive.
Knock-down of Nil (Nilkantha) [DRSC23322] gave: stable assay Renilla, run 1 = 5383; stable assay firefly, run 1 = 3.68e5; inactive.
Silencing of CG12061 [DRSC20715] resulted in: stable assay Renilla, run 1 = 4959; stable assay firefly, run 1 = 3.20e5; inactive.
For senju [DRSC02366], the values are stable assay Renilla, run 1 = 6235; stable assay firefly, run 1 = 3.53e5; inactive.
For CG9222 [DRSC03158] the deposit lists stable siRNA reporter change reporter ratio lowered past the hit cutoff; stable assay Renilla, run 1 = 3832; stable assay firefly, run 1 = 4.45e5; inactive.
After knock-down of Syx5 (Syntaxin 5) [DRSC03432], the screen gave stable assay Renilla, run 1 = 7266; stable assay firefly, run 1 = 1.07e6; inactive.
With knock-down of CG1983 [DRSC15410], the record shows stable assay Renilla, run 1 = 5751; stable assay firefly, run 1 = 4.99e5; inactive.
For CG4271 [DRSC00649], the entry reads stable assay Renilla, run 1 = 8779; stable assay firefly, run 1 = 6.02e5; inactive.
Knock-down of CG3368 [DRSC15485] resulted in: stable assay Renilla, run 1 = 8049; stable assay firefly, run 1 = 4.87e5; inactive.
After knock-down of CG14969 [DRSC08428], the screen gave stable assay Renilla, run 1 = 7371; stable assay firefly, run 1 = 4.76e5; inactive.
